Data from PubChem BioAssay AID720504 (National Center for Advancing Translational Sciences (NCATS), 2013).
The whole screen tested about 360,000 compounds, of which about 10,000 (2.8%) were called active. This list was built around the results that the source calls inconclusive (neither active nor inactive); the mix of calls is not that of the screen. Calls follow the shape of the dose curve; as a rule, active = well fitted inhibition curve with a large enough effect; inconclusive = small, poorly fitted or top-dose-only effect; inactive = flat fitted curve, though single readings scatter. Potencies of inconclusive entries are doubtful fits and often do not repeat.
% is scaled to controls: 0 for no effect and ±100 for the full control effect; potency is read from the fitted curve at half-maximal effect.
Also: nearly all actives have a fitted effect of over 65% in size.
For max response, negative = inhibition in this document: series mostly up to about 57 µM.

The chains behind the UniProt entries cited, without tags or fusion partners.
UniProt P53350, whole entry, looked up: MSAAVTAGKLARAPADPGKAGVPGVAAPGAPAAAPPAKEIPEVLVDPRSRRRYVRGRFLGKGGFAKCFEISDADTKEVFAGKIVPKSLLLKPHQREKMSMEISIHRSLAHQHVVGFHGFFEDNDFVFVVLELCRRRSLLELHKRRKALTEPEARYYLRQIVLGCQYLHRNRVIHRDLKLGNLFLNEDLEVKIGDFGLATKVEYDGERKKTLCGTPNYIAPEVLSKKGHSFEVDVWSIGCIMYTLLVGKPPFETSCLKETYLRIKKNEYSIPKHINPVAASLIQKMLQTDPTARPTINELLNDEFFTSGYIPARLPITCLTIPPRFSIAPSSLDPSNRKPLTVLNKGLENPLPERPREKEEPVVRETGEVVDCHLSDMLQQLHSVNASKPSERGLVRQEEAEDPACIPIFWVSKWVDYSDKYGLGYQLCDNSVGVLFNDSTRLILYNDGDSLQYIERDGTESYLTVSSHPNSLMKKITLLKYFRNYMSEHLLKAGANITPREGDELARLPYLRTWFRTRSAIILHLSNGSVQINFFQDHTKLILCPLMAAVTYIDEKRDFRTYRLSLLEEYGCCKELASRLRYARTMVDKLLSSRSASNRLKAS

Each compound was assayed against Serine/threonine-protein kinase PLK1 (Homo sapiens) (UniProt P53350) (assay: qHTS for Inhibitors of PLK1-PDB (polo-like kinase 1 - polo-box domain): Primary Screen). Conditions: Plk1 PBD binding of FITC phosphopeptide, fluorescence polarization.
With Cc1sc2nc(CSCC(=O)NC3CCCCC3)[nH]c(=O)c2c1C the Potency was inconclusive: 16.8 µM [inhibitor, partial curve]. In the case of S=C(NCCc1ccccc1)N1CCn2cccc2C1c1ccncc1 (stereo not drawn), the Potency was inconclusive: 21.2 µM [inhibitor, partial curve]. In the case of CC1(C)C=C2C(=NN(c3ccccc3)C(N)=C2C#N)CO1, the Potency was inconclusive: 23.8 µM [inhibitor, partial curve]. With CCCn1c(=O)c(C(=O)Nc2c(C)n(C)n(-c3ccccc3)c2=O)c(O)c2ccccc21 the Potency was inconclusive: 21.2 µM [inhibitor, partial curve]. For COc1ccc2oc(=O)c(/C(C)=N/Nc3nc(-c4cc(C)ccc4C)cs3)cc2c1, the Potency was inconclusive: 10.6 µM [inhibitor, partial curve]. With CC(NC(=O)C1CCCN1C(=O)OC(C)(C)C)C(=O)OCc1ccccc1 (stereo not drawn) the max response, negative = inhibition was inactive: 9.66%. For Cn1c(SSc2ccc(-c3cccnc3)n2C)ccc1-c1cccnc1, the Potency was active: 4.23 µM. For S=C(NCC1CCCO1)Nc1ccc(Cl)cc1Cl (stereo not drawn), the Potency was inconclusive: 21.2 µM [inhibitor, partial curve]. With Cc1cccc(NCCNc2cccc(C)c2)c1 the max response, negative = inhibition was inactive: -14%. For COc1ccccc1NC(=O)CSCC(N)=O, the Potency was inconclusive: 29.9 µM [inhibitor, single point]. For NC(=O)CC(O)c1cccc(Cl)c1 (stereo not drawn), the Potency was active: 26.7 µM. In the case of Cc1nc(C(Cl)(Cl)Cl)nc2[nH]ccc(=O)c12, the Potency was active: 26.7 µM. For O=C(O)c1ccc(/C=N/NC(=O)c2cc(-c3cccs3)nc3ccccc23)cc1, the max response, negative = inhibition was inactive: -12.9%. Cn1nnnc1SCC(=O)c1cccs1 was tested, and the max response, negative = inhibition was inactive: -19.7%. In the case of COc1ccc(-n2c(C)cc(C(=O)CSc3ccc(NC(C)=O)cc3)c2C)cc1, the Potency was inconclusive: 21.2 µM [inhibitor, single point]. COc1cccc(/C=C/C(=O)c2cccc([N+](=O)[O-])c2)c1OC was tested, and the Potency was inconclusive: 9.47 µM [inhibitor, partial curve]. In the case of COCc1ccc(C(=O)NCC2(N3CCCCC3)CCCCC2)cc1, the Potency was active: 29.9 µM. In the case of O=C(N/N=C/C(Cl)=C/c1ccccc1)c1ccco1, the Potency was inconclusive: 18.9 µM [inhibitor, partial curve]. For O=C(NC(=S)Nc1nc2ccccc2s1)c1cccs1, the Potency was inconclusive: 26.7 µM [inhibitor, partial curve]. In the case of COc1ccccc1N1C(=O)CC(Nc2ccc(N3CCOCC3)cc2)C1=O (stereo not drawn), the max response, negative = inhibition was inactive: -19.2%. With CC(=O)N/N=C(\C)CC(=O)Nc1ccc2c(c1)OCCO2 the max response, negative = inhibition was inactive: -12.5%. For COCOCCn1cc(CN2CCS(=O)(=O)N(Cc3ccc(-c4cccc(CO)c4)cc3)C(CC(C)C)C2=O)nn1 (stereo not drawn), the max response, negative = inhibition was inactive: 1.86%. For C=CCNC(=O)C(C#N)c1nc2ccccc2nc1N1CCN(Cc2ccccc2)CC1 (stereo not drawn), the Potency was inconclusive: 37.7 µM [inhibitor, single point]. With C/C(=N/NS(=O)(=O)c1ccc(Cl)cc1)c1ccncc1 the Potency was inconclusive: 26.7 µM [inhibitor, partial curve]. With CC(C)Oc1ccc(C(=O)Nc2ccccc2N2CCCC2)cc1 the Potency was active: 26.7 µM. COC(=O)C1CN(C(=O)C(C)Oc2ccc(C)c(C)c2)c2ccccc2O1 (stereo not drawn) was tested, and the max response, negative = inhibition was inactive: -6.46%. With COc1ccc(C(=O)NC(=S)N2CCCC2)cc1 the max response, negative = inhibition was inactive: -12.6%. For COc1ccc(S(=O)(=O)c2c(O)c3ccc(C(=O)Nc4ccccc4Cl)cc3[nH]c2=O)cc1, the max response, negative = inhibition was inconclusive: -30.6% [inhibitor]. CN(C(=O)CSC(=O)c1ccccc1)c1ccccc1 was tested, and the max response, negative = inhibition was inactive: -9.45%. In the case of Cc1cccc(NC(=O)CN2C(=O)CCSc3ccc(S(=O)(=O)N4CCOCC4)cc32)c1C, the Potency was inconclusive: 23.8 µM [inhibitor, partial curve]. CSc1ccc(CNC(=O)CCn2ccc3cc(S(=O)(=O)N4CCCC4)ccc32)cc1 was tested, and the Potency was active: 26.7 µM. Brc1cc2c(cc1COc1ccc(-c3nn[nH]n3)cc1)OCO2 was tested, and the max response, negative = inhibition was inconclusive: -34.7% [inhibitor]. For O=C(NCc1cccs1)[C@@H]1CSC2c3ccccc3C(=O)N21 (stereo partly drawn), the Potency was inconclusive: 15 µM [inhibitor, partial curve]. In the case of O=C(O)c1ccc(N2C(=O)CC(N3CCC(c4nc5ccccc5[nH]4)CC3)C2=O)cc1 (stereo not drawn), the max response, negative = inhibition was inactive: -4.38%. With O=C1CCCC(O)=C1N=Nc1ccc2c(c1)OCO2 the max response, negative = inhibition was inactive: -4.72%. CC(C)C(NC(=O)c1cccc(S(=O)(=O)N2CCOCC2)c1)C(=O)NCCc1ccccn1 (stereo not drawn) was tested, and the Potency was inconclusive: 21.2 µM [inhibitor, single point]. With COc1ccc(C(=O)OCCN2CCOCC2)cc1OC the Potency was inconclusive: 26.7 µM [inhibitor, single point]. With Cc1ccc(NC(=O)CSCc2cc(=O)n3nc(C4CC4)sc3n2)cc1 the Potency was active: 23.8 µM. Cc1cccc(NC(=O)CSc2cccc3cccnc23)c1 was tested, and the Potency was inconclusive: 23.8 µM [inhibitor, partial curve]. With CN(CCc1ccccc1)C(=O)c1ccc(NC(=O)Cc2ccc(NC(=O)C3CCN(C(=O)C4CCCC4)CC3)cc2)cc1 the max response, negative = inhibition was inactive: -14.4%. In the case of CC1(C)Cc2c(sc3ncn(N)c(=N)c23)CO1, the max response, negative = inhibition was inactive: -6.74%. CCCc1c(C(=O)N/N=C/c2cccnc2)nnn1-c1nonc1N was tested, and the Potency was inconclusive: 23.8 µM [inhibitor, single point]. CCOC(=O)c1c(NC(=O)c2ccoc2C)sc(C(=O)N(C)C)c1C was tested, and the Potency was inconclusive: 29.9 µM [inhibitor, single point]. In the case of Cc1ccc(NS(=O)(=O)c2ccc(C)c(NC(=O)c3ccc(S(=O)(=O)N4CCCCCC4)cc3)c2)c(C)c1, the max response, negative = inhibition was inactive: -12.2%. CCCn1c(CCC(=O)O)ccc1-c1ccccc1 was tested, and the Potency was active: 11.9 µM. With O=C(COc1ccc(Cl)cc1)NCCCNC(=O)c1cnccn1 the Potency was inconclusive: 29.9 µM [inhibitor, single point]. COc1ccc(S(=O)CC(=O)Nc2ccccc2Cl)cc1 (stereo not drawn) was tested, and the Potency was inconclusive: 37.7 µM [inhibitor, single point]. With Cc1ccc(C(=O)Nc2ccccc2Oc2ccccc2)cc1[N+](=O)[O-] the max response, negative = inhibition was inactive: -1.81%.
